Reference: US6596524
The exact form of at least one protein or probe is not confirmed. Tags and fusion partners may be left off the protein sequences shown.

Key:
[1] = test system: T1, BsmAI methylase (M.BsmAI) (Bacillus stearothermophilus A664); assay: activity in cells; conditions: plasmid expressing methylase becomes resistant to BsmAI digestion; protein in cells; only the motif is given
T1 sequence (limits assumed): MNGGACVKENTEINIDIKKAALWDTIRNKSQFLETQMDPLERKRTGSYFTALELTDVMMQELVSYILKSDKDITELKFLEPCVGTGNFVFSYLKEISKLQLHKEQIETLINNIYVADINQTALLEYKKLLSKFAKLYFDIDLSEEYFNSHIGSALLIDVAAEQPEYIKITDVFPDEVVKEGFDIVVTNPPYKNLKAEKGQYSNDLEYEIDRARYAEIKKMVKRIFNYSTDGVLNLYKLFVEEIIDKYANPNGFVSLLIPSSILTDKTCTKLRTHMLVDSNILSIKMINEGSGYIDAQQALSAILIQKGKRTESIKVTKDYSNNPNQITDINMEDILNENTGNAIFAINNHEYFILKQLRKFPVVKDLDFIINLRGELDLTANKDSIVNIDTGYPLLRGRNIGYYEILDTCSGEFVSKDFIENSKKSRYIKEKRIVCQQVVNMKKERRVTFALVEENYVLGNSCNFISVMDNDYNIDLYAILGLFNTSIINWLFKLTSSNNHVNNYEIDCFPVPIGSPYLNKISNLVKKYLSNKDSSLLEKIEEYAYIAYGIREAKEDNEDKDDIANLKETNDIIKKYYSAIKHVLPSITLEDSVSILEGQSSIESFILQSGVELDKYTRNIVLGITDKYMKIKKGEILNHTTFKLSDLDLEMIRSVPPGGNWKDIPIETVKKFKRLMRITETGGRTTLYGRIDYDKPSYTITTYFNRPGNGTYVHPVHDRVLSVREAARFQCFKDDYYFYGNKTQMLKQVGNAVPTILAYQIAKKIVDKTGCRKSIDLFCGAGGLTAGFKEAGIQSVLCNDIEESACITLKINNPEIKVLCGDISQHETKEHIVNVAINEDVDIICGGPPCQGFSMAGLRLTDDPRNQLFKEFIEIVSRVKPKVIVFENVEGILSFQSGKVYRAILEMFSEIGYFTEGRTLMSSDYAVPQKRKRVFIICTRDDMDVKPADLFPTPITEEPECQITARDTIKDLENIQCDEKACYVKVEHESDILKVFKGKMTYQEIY

[2] = test system: T2, BsmAI restriction endonuclease (native) (Bacillus stearothermophilus A664); assay: enzyme reaction in vitro; conditions: positive control, lambda DNA; purified native protein; protein details: New England Biolabs; only the motif is given
T2 sequence: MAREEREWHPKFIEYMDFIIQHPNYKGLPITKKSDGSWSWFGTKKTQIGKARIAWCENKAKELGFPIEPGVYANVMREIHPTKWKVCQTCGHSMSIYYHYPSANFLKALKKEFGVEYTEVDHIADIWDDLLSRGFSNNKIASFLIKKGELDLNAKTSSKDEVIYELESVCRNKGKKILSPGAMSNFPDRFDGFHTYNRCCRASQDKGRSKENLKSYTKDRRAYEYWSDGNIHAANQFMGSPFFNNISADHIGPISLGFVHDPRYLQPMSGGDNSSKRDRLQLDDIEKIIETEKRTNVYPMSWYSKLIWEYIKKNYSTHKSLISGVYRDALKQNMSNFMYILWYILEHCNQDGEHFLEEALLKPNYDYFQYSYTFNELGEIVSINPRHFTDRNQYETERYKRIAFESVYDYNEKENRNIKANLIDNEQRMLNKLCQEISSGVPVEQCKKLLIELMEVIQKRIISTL

[3] = test system: T3, BsmAI restriction endonuclease (recombinant) (Bacillus stearothermophilus A664); assay: enzyme reaction in vitro; conditions: lambda DNA digested by serially diluted cell extract; cleaves N1/N5 giving 4-base 5' overhang; protein in a lysate after overexpression; only the motif is …
T3 sequence: T2 sequence

Sequence	activity on this sequence [1]	activity on this sequence [2]	activity on this sequence [3]
GTCTC (double strand) [BsmAI recognition site (in pBR322 plasmid carrying bsmAIM)]	active	–	–
GTCTC (double strand) [BsmAI recognition site (in lambda DNA)]	–	active	active
